The list shows a part of the results.
compound: Cc1cc(Nc2cc(CN3CCOCC3)c3nc(C)c(Cc4ccc(Cl)cc4F)n3n2)n[nH]1 [gandotinib]; experiment: log2 fold change, soluble protein after heating vs DMSO (PISA); higher = thermal stabilisation; K562 cells, 10 uM, 30 min; active = over 0.2 and 3.5 SD of the protein, either way, in both replicates (recomputed)
How it was run: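 Soluble protein was defined as the supernatant after 21,000xg for 90 min. It came from K562 cells at 2×10^6 cells/mL given 10 μM compound for 30 min, heated in aliquots for 3 min across 48°C-58°C, pooled, and extracted in PBS with 0.5% NP-40 at 4°C, and was quantified by TMTpro 16plex LC-MS/MS with equalised channel sums. Thermal stability against control samples, from duplicates, is reported as log2 fold change.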

The chains behind the UniProt entries cited, without tags or fusion partners. Where a name states a change or a piece, a line headed by the entry shows the natural chain unless it says otherwise.
UniProt O75600: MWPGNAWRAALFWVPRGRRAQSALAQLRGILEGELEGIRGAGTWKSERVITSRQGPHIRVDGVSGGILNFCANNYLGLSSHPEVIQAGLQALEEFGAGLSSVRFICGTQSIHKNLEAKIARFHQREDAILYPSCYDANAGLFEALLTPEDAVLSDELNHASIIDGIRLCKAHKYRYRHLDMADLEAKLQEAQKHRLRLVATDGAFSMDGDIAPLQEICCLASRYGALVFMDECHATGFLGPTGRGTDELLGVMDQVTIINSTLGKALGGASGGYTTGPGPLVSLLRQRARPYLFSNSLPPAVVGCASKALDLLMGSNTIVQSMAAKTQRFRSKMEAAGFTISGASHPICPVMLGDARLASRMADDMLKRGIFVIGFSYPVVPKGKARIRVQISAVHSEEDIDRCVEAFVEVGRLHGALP
UniProt Q9NY12: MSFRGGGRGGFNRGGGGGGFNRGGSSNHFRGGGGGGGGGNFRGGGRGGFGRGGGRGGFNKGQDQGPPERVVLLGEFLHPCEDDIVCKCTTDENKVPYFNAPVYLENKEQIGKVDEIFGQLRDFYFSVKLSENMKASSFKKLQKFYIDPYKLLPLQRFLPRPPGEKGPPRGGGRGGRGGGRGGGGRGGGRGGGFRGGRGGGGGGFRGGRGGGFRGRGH
UniProt P51114, whole entry, looked up: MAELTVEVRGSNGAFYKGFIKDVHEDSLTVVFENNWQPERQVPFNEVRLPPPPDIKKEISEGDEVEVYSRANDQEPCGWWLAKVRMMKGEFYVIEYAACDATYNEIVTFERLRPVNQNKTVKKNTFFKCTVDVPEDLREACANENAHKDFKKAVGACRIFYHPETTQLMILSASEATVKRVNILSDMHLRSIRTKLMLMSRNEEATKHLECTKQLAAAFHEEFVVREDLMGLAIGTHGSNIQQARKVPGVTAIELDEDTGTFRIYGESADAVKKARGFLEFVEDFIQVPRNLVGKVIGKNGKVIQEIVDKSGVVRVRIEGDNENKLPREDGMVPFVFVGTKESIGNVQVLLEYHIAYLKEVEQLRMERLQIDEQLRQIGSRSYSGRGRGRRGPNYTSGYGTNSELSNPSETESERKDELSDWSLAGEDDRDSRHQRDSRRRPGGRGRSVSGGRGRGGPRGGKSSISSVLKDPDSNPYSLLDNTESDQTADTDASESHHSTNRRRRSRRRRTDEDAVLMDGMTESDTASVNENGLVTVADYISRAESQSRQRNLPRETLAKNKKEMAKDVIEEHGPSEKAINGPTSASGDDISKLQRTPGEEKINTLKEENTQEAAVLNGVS
UniProt Q86SF2: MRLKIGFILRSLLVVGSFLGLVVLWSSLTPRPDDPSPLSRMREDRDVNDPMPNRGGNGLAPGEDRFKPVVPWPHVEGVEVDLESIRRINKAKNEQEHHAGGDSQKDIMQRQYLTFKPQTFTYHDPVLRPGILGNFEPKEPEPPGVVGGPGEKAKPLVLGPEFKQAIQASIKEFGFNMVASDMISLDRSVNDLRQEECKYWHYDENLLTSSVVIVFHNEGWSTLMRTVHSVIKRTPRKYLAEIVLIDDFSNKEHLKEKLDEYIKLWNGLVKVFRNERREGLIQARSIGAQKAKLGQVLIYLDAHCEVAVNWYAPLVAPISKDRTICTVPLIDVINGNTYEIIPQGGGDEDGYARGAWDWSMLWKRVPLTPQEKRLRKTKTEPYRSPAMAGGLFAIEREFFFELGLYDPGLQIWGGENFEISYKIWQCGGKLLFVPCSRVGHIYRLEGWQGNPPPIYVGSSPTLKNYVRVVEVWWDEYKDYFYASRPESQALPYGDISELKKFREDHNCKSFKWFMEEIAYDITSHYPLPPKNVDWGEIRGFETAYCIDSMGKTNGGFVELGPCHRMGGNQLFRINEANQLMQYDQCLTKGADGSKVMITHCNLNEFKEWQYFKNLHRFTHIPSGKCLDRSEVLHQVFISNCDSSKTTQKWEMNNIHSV
UniProt Q9H2C0: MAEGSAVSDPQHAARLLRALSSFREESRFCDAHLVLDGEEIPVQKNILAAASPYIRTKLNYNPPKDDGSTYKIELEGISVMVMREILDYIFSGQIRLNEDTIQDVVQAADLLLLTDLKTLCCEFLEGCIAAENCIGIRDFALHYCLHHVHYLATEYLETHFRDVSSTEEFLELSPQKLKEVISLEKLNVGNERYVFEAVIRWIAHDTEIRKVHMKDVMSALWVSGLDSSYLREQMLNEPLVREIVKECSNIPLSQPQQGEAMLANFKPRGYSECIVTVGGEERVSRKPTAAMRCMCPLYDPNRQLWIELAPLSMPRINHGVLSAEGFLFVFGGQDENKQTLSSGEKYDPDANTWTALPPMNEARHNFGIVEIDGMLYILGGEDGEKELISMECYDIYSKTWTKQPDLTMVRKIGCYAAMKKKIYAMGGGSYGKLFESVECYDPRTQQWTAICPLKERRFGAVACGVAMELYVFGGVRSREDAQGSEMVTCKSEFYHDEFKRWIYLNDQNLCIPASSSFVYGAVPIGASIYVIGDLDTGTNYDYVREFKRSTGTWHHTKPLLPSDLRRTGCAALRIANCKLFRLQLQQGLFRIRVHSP
UniProt Q9NZ52: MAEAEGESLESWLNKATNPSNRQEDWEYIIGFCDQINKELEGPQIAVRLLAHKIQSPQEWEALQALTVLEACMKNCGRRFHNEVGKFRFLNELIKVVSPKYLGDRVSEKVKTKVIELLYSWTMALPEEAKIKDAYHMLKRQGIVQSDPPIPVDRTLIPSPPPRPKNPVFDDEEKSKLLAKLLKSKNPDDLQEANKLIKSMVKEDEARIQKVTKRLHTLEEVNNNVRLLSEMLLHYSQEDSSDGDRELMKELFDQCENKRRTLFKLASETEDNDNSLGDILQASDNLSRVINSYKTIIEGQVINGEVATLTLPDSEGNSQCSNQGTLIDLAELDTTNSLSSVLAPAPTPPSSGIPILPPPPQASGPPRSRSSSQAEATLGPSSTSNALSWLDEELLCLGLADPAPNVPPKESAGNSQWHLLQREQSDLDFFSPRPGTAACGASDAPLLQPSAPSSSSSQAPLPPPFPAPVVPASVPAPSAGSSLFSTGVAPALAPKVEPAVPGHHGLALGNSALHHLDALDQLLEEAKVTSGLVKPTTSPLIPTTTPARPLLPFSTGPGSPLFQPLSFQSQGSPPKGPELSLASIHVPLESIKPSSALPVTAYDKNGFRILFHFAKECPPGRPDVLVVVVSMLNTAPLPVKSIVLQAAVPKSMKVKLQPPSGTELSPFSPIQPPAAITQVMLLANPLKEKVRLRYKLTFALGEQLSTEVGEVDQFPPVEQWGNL
UniProt Q01415: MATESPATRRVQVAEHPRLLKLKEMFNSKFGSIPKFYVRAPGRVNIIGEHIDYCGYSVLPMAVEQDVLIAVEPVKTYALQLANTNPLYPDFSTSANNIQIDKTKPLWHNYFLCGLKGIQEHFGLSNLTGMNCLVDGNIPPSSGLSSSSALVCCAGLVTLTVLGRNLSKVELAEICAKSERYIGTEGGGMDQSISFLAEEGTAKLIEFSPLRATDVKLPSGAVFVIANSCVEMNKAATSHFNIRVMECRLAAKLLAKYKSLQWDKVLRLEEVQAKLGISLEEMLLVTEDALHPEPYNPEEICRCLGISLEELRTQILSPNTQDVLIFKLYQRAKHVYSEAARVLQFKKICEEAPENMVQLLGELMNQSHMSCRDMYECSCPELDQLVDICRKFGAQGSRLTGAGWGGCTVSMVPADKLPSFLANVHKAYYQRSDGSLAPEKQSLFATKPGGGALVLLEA
UniProt P02794, whole entry, looked up: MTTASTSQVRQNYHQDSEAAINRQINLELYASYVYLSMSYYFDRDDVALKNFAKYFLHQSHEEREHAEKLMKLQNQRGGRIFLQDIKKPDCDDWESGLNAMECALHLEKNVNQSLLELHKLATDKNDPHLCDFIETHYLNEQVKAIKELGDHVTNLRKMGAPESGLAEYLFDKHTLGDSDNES
UniProt P48506: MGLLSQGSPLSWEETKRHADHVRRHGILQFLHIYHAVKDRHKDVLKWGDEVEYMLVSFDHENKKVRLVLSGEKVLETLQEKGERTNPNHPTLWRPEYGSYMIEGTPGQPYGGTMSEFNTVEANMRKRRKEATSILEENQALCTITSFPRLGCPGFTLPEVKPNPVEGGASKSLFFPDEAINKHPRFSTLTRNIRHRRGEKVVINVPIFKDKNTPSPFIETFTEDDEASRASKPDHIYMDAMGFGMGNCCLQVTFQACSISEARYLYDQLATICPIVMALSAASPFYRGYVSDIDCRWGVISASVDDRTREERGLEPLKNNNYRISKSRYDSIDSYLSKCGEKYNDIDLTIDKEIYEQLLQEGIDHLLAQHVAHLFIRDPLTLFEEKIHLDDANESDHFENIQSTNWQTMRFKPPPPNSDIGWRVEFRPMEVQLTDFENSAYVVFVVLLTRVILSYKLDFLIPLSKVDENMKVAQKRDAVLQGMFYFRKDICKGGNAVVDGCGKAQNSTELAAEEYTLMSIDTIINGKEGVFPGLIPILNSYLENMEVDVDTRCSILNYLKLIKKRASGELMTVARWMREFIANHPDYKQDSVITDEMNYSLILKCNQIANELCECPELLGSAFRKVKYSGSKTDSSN
UniProt Q6NT46: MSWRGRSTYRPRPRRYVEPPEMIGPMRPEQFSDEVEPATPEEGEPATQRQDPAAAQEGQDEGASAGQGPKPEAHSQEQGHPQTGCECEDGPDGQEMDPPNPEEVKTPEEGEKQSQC
UniProt Q13283, whole entry, looked up: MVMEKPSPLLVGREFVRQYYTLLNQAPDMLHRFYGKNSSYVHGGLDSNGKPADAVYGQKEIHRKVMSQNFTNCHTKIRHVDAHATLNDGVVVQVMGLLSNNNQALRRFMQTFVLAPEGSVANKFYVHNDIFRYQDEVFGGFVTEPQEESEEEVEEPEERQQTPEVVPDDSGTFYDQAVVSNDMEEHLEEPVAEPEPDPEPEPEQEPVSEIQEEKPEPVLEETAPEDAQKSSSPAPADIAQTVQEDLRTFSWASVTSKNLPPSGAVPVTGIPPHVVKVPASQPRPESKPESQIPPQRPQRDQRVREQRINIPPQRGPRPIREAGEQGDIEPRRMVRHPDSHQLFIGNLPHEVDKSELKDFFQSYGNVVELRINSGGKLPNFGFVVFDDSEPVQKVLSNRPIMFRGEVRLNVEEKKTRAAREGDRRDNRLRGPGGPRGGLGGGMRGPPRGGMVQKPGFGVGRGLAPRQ
UniProt P57678: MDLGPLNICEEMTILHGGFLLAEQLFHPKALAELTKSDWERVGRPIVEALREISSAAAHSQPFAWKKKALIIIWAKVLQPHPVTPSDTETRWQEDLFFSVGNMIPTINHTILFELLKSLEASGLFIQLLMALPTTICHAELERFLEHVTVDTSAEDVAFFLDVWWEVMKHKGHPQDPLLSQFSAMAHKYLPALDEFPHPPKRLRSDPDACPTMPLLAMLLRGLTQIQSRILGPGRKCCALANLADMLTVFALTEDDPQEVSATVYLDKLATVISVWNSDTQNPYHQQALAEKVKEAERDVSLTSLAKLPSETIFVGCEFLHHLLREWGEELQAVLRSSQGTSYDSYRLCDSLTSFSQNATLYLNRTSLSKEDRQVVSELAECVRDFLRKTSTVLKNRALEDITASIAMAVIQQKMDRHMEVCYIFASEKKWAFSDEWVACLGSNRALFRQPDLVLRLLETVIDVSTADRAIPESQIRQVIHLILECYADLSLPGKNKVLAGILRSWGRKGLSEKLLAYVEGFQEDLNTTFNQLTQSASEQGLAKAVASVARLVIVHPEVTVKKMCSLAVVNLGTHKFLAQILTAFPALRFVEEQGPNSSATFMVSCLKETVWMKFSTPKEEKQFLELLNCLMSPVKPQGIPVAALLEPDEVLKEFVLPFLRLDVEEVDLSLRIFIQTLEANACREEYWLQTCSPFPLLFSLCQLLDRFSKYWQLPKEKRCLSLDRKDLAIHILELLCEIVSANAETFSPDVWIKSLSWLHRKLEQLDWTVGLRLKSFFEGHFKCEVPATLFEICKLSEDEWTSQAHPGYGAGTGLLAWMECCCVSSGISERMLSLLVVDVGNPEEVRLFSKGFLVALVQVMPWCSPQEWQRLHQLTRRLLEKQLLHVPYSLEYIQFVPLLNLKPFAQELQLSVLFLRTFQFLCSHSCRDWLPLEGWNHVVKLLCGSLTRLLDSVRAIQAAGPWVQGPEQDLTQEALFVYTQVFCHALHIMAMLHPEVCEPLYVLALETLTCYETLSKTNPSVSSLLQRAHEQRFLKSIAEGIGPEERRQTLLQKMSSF
UniProt O75223: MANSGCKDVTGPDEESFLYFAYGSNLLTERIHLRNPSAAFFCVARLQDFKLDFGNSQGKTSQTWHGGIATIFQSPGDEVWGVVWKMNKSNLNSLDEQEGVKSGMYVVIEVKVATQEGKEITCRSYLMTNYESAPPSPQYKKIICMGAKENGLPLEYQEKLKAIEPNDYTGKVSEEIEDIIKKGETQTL

log2 fold change, inactive:
GCAT isoform 2 (UniProt O75600) 0.048, GAR1 (UniProt Q9NY12) 0.117, GATAD2A isoform 3 (UniProt Q86YP4) -0.019, FXR1 (UniProt P51114) 0.237, FYCO1 isoform 4 (UniProt Q9BQS8) 0.069, G3BP2 (UniProt Q9UN86) 0.172, GALNT7 (UniProt Q86SF2) -0.02, GAN (UniProt Q9H2C0) -0.109, FRG1 (UniProt Q14331) 0.047, GGA3 (UniProt Q9NZ52) -0.151, GCHFR (UniProt P30047) -0.215, FUS (UniProt P35637) 0.057, GALK2 (UniProt Q01415) -0.004, GAMT (UniProt Q14353) -0.198, FTH1 (UniProt P02794) 0.022, GCLC (UniProt P48506) -0.014, FUBP1 (UniProt Q96AE4) -0.049, GAGE2A (UniProt Q6NT46) -0.002, FXR2 (UniProt P51116) 0.191, G3BP1 (UniProt Q13283) 0.148, GEMIN4 (UniProt P57678) 0.007, GGCT (UniProt O75223) -0.046, FTSJ1 (UniProt Q9UET6) -0.058
